92 compounds from paper PMC6925144, “A prospective compound screening contest identified broader inhibitors for Sirtuin 1” (Scientific Reports, 2019) can be followed below.

By UniProt entry, the sequences of proteins in these tests, tags left out. Residues count along the entry.
UniProt Q96EB6, 2-747 limits assumed: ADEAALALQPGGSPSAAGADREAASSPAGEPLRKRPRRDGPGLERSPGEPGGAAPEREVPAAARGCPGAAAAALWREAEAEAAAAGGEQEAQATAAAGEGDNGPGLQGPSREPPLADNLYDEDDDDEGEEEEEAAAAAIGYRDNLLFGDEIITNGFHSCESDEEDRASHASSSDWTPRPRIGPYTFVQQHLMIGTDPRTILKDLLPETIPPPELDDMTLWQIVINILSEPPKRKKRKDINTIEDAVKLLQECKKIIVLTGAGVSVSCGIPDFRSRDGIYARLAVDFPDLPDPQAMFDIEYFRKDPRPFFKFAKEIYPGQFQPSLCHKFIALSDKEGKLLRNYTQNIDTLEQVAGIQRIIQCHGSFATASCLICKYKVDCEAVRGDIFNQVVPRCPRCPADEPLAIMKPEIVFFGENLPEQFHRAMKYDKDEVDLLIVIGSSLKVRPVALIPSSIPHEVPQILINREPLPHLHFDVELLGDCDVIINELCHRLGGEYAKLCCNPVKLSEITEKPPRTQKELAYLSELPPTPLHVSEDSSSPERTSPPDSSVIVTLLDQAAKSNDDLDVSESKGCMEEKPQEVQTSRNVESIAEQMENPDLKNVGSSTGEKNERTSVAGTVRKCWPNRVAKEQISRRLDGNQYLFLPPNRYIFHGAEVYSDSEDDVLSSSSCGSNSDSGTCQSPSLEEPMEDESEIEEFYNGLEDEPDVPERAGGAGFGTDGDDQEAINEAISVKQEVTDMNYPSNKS

The structures appear in SMILES notation. Over roughly 3,200 compounds, “TSA(with NAD+) / Primary screening (TSA) / delta Tm (K)” has its median near -0.04; the highest 2% begin near 0.37. The list shows a part of the results.

This test addresses NAD-dependent deacetylase Sirtuin 1 (human, UniProt Q96EB6). In words: primary screen, delta tm. The note with it: 10 µM. Further details: single well (n = 1, as 'the same TSA').
`Cc1ccc(N(C)S(=O)(=O)c2cccc(C(=O)Oc3ccc4c(C)cc(=O)oc4c3)c2)cc1`: the “TSA(with NAD+) / Primary screening (TSA) / delta Tm (K)” value came out at 0.16 K.
As for `NCc1nc2cc(C(=O)O)ccc2[nH]1`, the figure is 0.07 K; as for `Cc1ccc2c(Cn3nnc(-c4ccccc4)n3)cc(=O)oc2c1C`, -0.02 K; as for `CC(CN)CCO` (centres unmarked), -0.33 K.
For `CCC(C)C(O)CN` (centres unmarked) the value was -0.05 K; for `CCOc1ccc(C(=O)C2=C(O)C(=O)N(CCN3CCOCC3)C2c2ccc(OCC)cc2)cc1` (centres unmarked), -0.24 K; for `CCCOc1ccc(C2C(C(=O)c3sc(C)nc3C)=C(O)C(=O)N2CCCN2CCOCC2)cc1` (centres unmarked), 0.05 K.
For the compound `CCc1nc2ccccc2n1CC(=O)N1CC(C)OCC1C` (centres unmarked), the “TSA(with NAD+) / Primary screening (TSA) / delta Tm (K)” value is -0.01 K.
As for `N#CCCn1cc(C(=O)CN2CCN(C(c3ccc(F)cc3)c3ccc(F)cc3)CC2)c2ccccc21`, the figure is 0.21 K; as for `NS(=O)(=O)c1ccc(Br)c(C(=O)Nc2ccc(NC(=O)CN3CCOCC3)cc2)c1`, -0.09 K; as for `CN(Cc1ccc(C(N)=O)cc1)S(=O)(=O)c1ccc2c(c1)CCC2`, 0.15 K.
On to `CCOc1ccc(C2C(C(=O)c3cc4ccccc4o3)=C(O)C(=O)N2CCCN2CCOCC2)cc1` (centres unmarked), for which the “TSA(with NAD+) / Primary screening (TSA) / delta Tm (K)” value was -0.18 K.
As for `COc1ccccc1C1C(C(=O)c2ccc3c(c2)OCCO3)=C(O)C(=O)N1CCCN1CCOCC1` (centres unmarked), the figure is -0.16 K; as for `NC(=O)c1cc(NC(=O)c2ccc(-c3ccccc3F)o2)ccc1Cl`, -0.13 K.
For `COc1cc(CN(C)C(=O)Cc2c(F)cccc2Cl)ccc1OCc1ccccc1` the value was -0.21 K; for `COc1cc(C(C)=O)ccc1COc1ccc(C(=O)OCC(N)=O)cc1OC`, 0.15 K; for `CC(NC(=O)CNC(=O)CNC(=O)c1cccs1)c1ccccn1` (centres unmarked), 0.01 K.
As for `Cc1cc(/N=C/c2c(O)ccc3ccccc23)ccc1I`, the figure is 0.07 K; as for `COc1cc(CC(=O)N2CC(C(N)=O)c3ccccc32)ccc1C` (centres unmarked), 0.16 K.
For the compound `Cc1c(C(=O)CSc2nnc(NCc3ccco3)s2)oc2ccccc12`, the “TSA(with NAD+) / Primary screening (TSA) / delta Tm (K)” value stood at 0.05 K.
For `CN(C)C(=O)c1ccccc1NC(=O)NC(C)(C)c1ccc(F)cc1` the value was -0.22 K; for `O=C1NC(=S)NC(=O)C1=Cc1ccc(-c2ccccc2)s1`, -0.06 K.
For `Cn1c(SCCc2ccccc2)nc2ccsc2c1=O` the value was -0.19 K.
`O=C(COC(=O)C1=COCCO1)Nc1cccc2ccccc12`: the “TSA(with NAD+) / Primary screening (TSA) / delta Tm (K)” value was 0.09 K.
As for `Cn1ccnc1C(NC(=O)c1ccc(O)c(Cl)c1)c1ccccc1F` (centres unmarked), the figure is -0.23 K.
As to `CCN(CC)c1ccc(NC(=O)CN2CCCC2C(=O)N(C)C)cc1` (centres unmarked), the “TSA(with NAD+) / Primary screening (TSA) / delta Tm (K)” value is listed as -0.13 K.
For `Cc1ccc(N(C)S(=O)(=O)c2cccc(C(=O)Oc3ccc4oc5ccccc5c4c3)c2)cc1` the value was 0.06 K; for `Cc1c(C=C2C(=O)NC(=S)NC2=O)cnn1-c1ccccc1`, -0.22 K.
As for `Cc1nn(-c2cccc(C(F)(F)F)c2)c(C)c1C(=O)C(=O)N1CCNC(=O)C1`, the figure is -0.24 K.
As for `CC(C)Oc1ccc(C2C(C(=O)c3ccco3)=C(O)C(=O)N2CCCN2CCOCC2)cc1` (centres unmarked), the figure is 0.03 K; as for `C=CCOCCN`, -0.02 K.
`CC(C)C(NC(=O)c1cnsn1)c1cccs1` (centres unmarked): the “TSA(with NAD+) / Primary screening (TSA) / delta Tm (K)” value is on record as -0.04 K.
For `CC(OC(=O)C1CC(=O)N(Cc2ccco2)C1)C(=O)Nc1ccc(C(N)=O)cc1` (centres unmarked) the value was -0.13 K.
For `O=C(C1=C(O)C(=O)N(CCCN2CCOCC2)C1c1cccc([N+](=O)[O-])c1)c1ccco1` (centres unmarked) the value was -0.13 K.
For `O=C(OCc1cccc2ccccc12)C1CCCCN1c1ncccn1` (centres unmarked) the value was -0.03 K; for `NCCC[C@H](N)C(=O)O`, 0.13 K; for `CN(c1ccc(F)cc1)S(=O)(=O)c1cccc(-c2nnnn2C)c1`, -0.09 K.
In the case of `CC(=O)c1cccc(NC(=O)c2ccc(CCNS(C)(=O)=O)s2)c1`, the “TSA(with NAD+) / Primary screening (TSA) / delta Tm (K)” value was -0.09 K.
As for `NC(=O)c1ccc(COC(=O)c2ccccc2-c2ncc(-c3ccccc3)o2)cc1`, the figure is 0.03 K; as for `CCCN(CC)CCN`, -0.11 K; as for `Cc1c(-c2ccccc2)oc2c(C(=O)OCC(=O)NC34CC5CC(CC(C5)C3)C4)cccc2c1=O`, -0.02 K.
As for `COc1ccc(CNCc2c[nH]nc2-c2ccc(C)cc2)cc1OC`, the figure is -0.13 K.
For `NC(=S)c1ccc(C(=O)NCc2ccnc(OCC(F)(F)F)c2)cc1` the value was -0.11 K; for `COc1ccc(NC(=O)COC(=O)c2ccccc2SCC(=O)NC23CC4CC(CC(C4)C2)C3)cc1OC`, -0.08 K; for `COc1ccc(C(=O)C2=C(O)C(=O)N(CCCN3CCOCC3)C2c2ccccc2F)cc1` (centres unmarked), -0.05 K.
For `COc1ccc(N(C)S(=O)(=O)c2cccc(C(=O)OCCCC(=O)c3ccc(F)cc3)c2)cc1`, the “TSA(with NAD+) / Primary screening (TSA) / delta Tm (K)” value is 0.17 K.
As to `O=C(CC(=O)N/N=C/c1ccc(O)cc1O)N/N=C/c1ccc(O)cc1O`, the “TSA(with NAD+) / Primary screening (TSA) / delta Tm (K)” value is on record as 0.29 K.
As for `CCOCC(C)N` (centres unmarked), the figure is -0.11 K.
For `CCCOc1ccc(C(=O)C2=C(O)C(=O)N(CCCN3CCOCC3)C2c2ccccn2)cc1` (centres unmarked) the value was -0.12 K.
As for `Cc1cccc(NC(=O)CN2CCN(C(=O)c3ccccc3C(=O)c3ccccc3)CC2)c1C`, the figure is -0.12 K; as for `Cn1c(-c2ccccc2)c(C(=O)O)c2ccccc21`, 0.07 K.
Consider `Cc1cccc(N/C=C(/C(=O)c2ccccc2)C(=O)C(F)(F)F)c1`, for which the “TSA(with NAD+) / Primary screening (TSA) / delta Tm (K)” value is on record as 0.06 K.
As for `NC(=O)C1CCN(CCCNC(=O)Nc2cccc(N3CCNC3=O)c2)CC1`, the figure is -0.15 K; as for `O=C(Nc1cccc(S(=O)(=O)N2CCOCC2)c1)c1cccc(S(=O)(=O)N2CCc3ccccc32)c1`, 0.41 K; as for `Cc1oc2nc[nH]c(=O)c2c1C(=O)OC(C)C(=O)N1CCOCC1` (centres unmarked), -0.06 K.
As for `OC(COc1c(Cl)cccc1Cl)Cn1nnc(-c2cccnc2)n1` (centres unmarked), the figure is -0.18 K; as for `CN(c1ccccc1)S(=O)(=O)c1cccc(/N=C2/C(=O)Nc3ccc(Br)cc32)c1`, -0.28 K.
For `COc1ccc(C(=O)O)cc1S(=O)(=O)Nc1cc(C(N)=O)cc(C(N)=O)c1` the value was 0.01 K; for `COc1ccc(C)cc1-n1ccc(C(=O)N2CCCc3c(C(N)=O)cccc32)n1`, 0.02 K.
As to `CC(C)OCc1ccc(C(=O)Nc2ccc(N3CCN(Cc4ccccc4)CC3)cc2)cc1`, the “TSA(with NAD+) / Primary screening (TSA) / delta Tm (K)” value amounted to 0.25 K.
As for `Cc1cc(C=C2C(=O)NC(=S)NC2=O)c(C)n1-c1cccc(C(F)(F)F)c1`, the figure is -0.73 K; as for `O=C1NCCN(C(=O)c2ccon2)C1c1ccc(C(F)(F)F)cc1` (centres unmarked), -0.03 K; as for `CCc1ccc(-c2nn(-c3ccccc3)cc2C=C2C(=O)NC(=O)NC2=O)cc1`, -0.38 K.
In the case of `CNC(=O)C(C)CN(C)c1ccc(C(F)(F)F)c(C#N)c1` (centres unmarked), the “TSA(with NAD+) / Primary screening (TSA) / delta Tm (K)” value was -0.21 K.
As for `O=C(Nc1ccccc1)C1CCN(C(=O)c2cc(-c3ccc(O)cc3)nc3ccccc23)CC1`, the figure is 0.22 K; as for `CC(C(=O)Nc1ccc(C(N)=O)cc1)N(C)Cc1ccccc1N1CCCCC1` (centres unmarked), 0.05 K.
For `CC(N)c1nnn[nH]1` (centres unmarked) the value was -0.05 K; for `O=C(CCc1nc2ccccc2o1)N1CCN(C(c2ccccc2)c2ccccc2)CC1`, -0.01 K; for `COc1cc(NC(=O)C2CCCC2)c(C(=O)OCC(=O)N(Cc2ccccc2)C(C)(C)C)cc1OC`, -0.09 K.
As for `Cc1cc(CC(=O)NC(CC(C)C)C(=O)Nc2cc[nH]n2)no1` (centres unmarked), the figure is 0.05 K.
Turning to `COc1ccc(C(=O)C2=C(O)C(=O)N(CCCN3CCOCC3)C2c2ccccc2)cc1OC` (centres unmarked), the “TSA(with NAD+) / Primary screening (TSA) / delta Tm (K)” value was -0.14 K.
As for `CCOc1ccc(CCNC(=O)COC(=O)CNC(=O)C23CC4CC(CC(C4)C2)C3)cc1OCC`, the “TSA(with NAD+) / Primary screening (TSA) / delta Tm (K)” value is given as -0.12 K.
On to `CC1CCc2[nH]c3ccc(C(=O)OCC(=O)NC(=O)NC45CC6CC(CC(C6)C4)C5)cc3c2C1` (centres unmarked), for which the “TSA(with NAD+) / Primary screening (TSA) / delta Tm (K)” value was 0.31 K.
For `COc1ccc(CCC(=O)Nc2cc(S(=O)(=O)N3CCCCC3)ccc2OC(C)C)cc1OC` the value was -0.05 K; for `COc1ccccc1NS(=O)(=O)c1ccc(N2CCOCC2)c(NC(=S)NC(=O)C23CC4CC(CC(C4)C2)C3)c1`, -0.06 K; for `Cc1ccc(NC(=O)C2=COCCO2)cc1S(=O)(=O)N1CCOCC1`, -0.04 K.
As for `NNC(=O)Cc1ccc(Cl)cc1`, the “TSA(with NAD+) / Primary screening (TSA) / delta Tm (K)” value is listed as -0.05 K.
As for `CCCC(C)C(=O)O` (centres unmarked), the figure is -0.06 K; as for `NC(=O)c1cccc(CNCc2ccsc2)c1`, 0.05 K; as for `COc1ccc(CNCc2ccc(C(N)=O)cc2)cc1`, 0.01 K.
Consider `O=C(CCn1[nH]c(=O)ccc1=O)Nc1ccc(Cl)cc1F`, for which the “TSA(with NAD+) / Primary screening (TSA) / delta Tm (K)” value is -0.04 K.
As for `O=C(c1cccc(Cl)c1)N1CCc2ccccc21`, the figure is -0.04 K.
As for `NC(=O)c1ccc(COC(=O)c2cc3c(ccc4ccccc43)[nH]2)cc1`, the figure is 0.09 K; as for `CCc1noc(CNc2cc(C(N)=O)ccc2OC)n1`, -0.03 K; as for `CCOc1ccc(C2C(C(=O)c3ccc(C)o3)=C(O)C(=O)N2CCCN2CCOCC2)cc1OC` (centres unmarked), -0.04 K.
For `C[C@@H](N)CO` the value was -0.11 K; for `CCOC(=O)c1sc2nc(C)nc(N3CCN(c4ccc(O)cc4)CC3)c2c1C`, 0.06 K; for `Cc1nccn1-c1ncnc2c1cnn2-c1ccccc1`, 0.09 K.
Regarding `COc1ccc(C(=O)C2=C(O)C(=O)N(CCCN3CCOCC3)C2c2ccco2)cc1OC` (centres unmarked), the “TSA(with NAD+) / Primary screening (TSA) / delta Tm (K)” value is -0.03 K.
For `Cc1cccc2[nH]c(CCC(=O)NCC(=O)Nc3cccnc3)nc12` the value was -0.01 K; for `CC(OC(=O)c1ccc(-c2ccc(O)cc2)cc1)C(=O)NCc1ccccc1` (centres unmarked), -0.04 K; for `Cc1noc(C(C)N2CCN(Cc3cccc(C(N)=O)c3)CC2)n1` (centres unmarked), -0.03 K.
